PubChem BioAssay AID1159584 | Peter MacCallum Cancer Centre, 2016

Assay: 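Genes that CDH1-null MCF10A cells selectively depend on to survive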 (primary screen)
Cell system: human MCF10A breast epithelial cells, parental and CDH1-null
Reagent: siRNA against human genes
Measurement: 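Cell viability by CellTiter-Glo ATP luminescence, each line scaled to the mean of mock wells across plates, then CDH1-null over parental ratio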
Scale: CDH1-null / parental viability ratio: higher = CDH1-null cells survive relatively better than parental
In all, the deposit lists about 18,000 reagents; this is an unselected part. Not all columns of the deposit are shown. Not given: the amount of reagent, the time to read-out.

gene knocked down	CDH1-null / parental viability ratio
CEP68 (GeneID 23177)	1.23
SLC29A3 (GeneID 55315)	0.82
CDKN1B (GeneID 1027)	0.88
SP1 (GeneID 6667)	0.91
RPE (GeneID 6120)	1.17
MAP3K20 (GeneID 51776)	0.86
CYP2A6 (GeneID 1548)	0.92
ZBTB7C (GeneID 201501)	1.02
DDX21 (GeneID 9188)	0.96
GSKIP (GeneID 51527)	0.83
OR13J1 (GeneID 392309)	0.82
CNTF (GeneID 1270)	1.1
FEV (GeneID 54738)	1.2
OSTCP1 (GeneID 202459)	1.17
C4orf46 (GeneID 201725)	0.95
FUT5 (GeneID 2527)	1.14
PTPRH (GeneID 5794)	1.71
RAB14 (GeneID 51552)	1.19
MICU1 (GeneID 10367)	0.83
KRTAP13-3 (GeneID 337960)	1.22
CENPT (GeneID 80152)	1
CD22 (GeneID 933)	0.94
UTP23 (GeneID 84294)	1.28
DAPK2 (GeneID 23604)	0.9
SMPD4 (GeneID 55627)	0.78
EIF4G2 (GeneID 1982)	1.06
SLC35E1 (GeneID 79939)	1.25
LGALS3 (GeneID 3958)	0.93
CT47A8 (GeneID 728049)	1.37
SPATA16 (GeneID 83893)	0.77
GSX1 (GeneID 219409)	0.91
ARFGEF1 (GeneID 10565)	1.08
SFTA2 (GeneID 389376)	0.98
ATG101 (GeneID 60673)	0.88
CLEC1B (GeneID 51266)	0.92
SARNP (GeneID 84324)	1.14
MAB21L2 (GeneID 10586)	0.91
RGS2 (GeneID 5997)	1.14
RBMS2 (GeneID 5939)	1.05
COL9A3 (GeneID 1299)	1.25
KPNA4 (GeneID 3840)	1.05
TFF2 (GeneID 7032)	1.05
ING1 (GeneID 3621)	1.02
ZNF581 (GeneID 51545)	1.15
PPM1J (GeneID 333926)	1.1
AGR3 (GeneID 155465)	0.83
